The values that follow come from paper PMC4974783.

By UniProt entry, the sequences of proteins in these tests, tags left out. Where a name states a change or a piece, a line headed by the entry shows the natural chain unless it says otherwise.
UniProt Q9NR12: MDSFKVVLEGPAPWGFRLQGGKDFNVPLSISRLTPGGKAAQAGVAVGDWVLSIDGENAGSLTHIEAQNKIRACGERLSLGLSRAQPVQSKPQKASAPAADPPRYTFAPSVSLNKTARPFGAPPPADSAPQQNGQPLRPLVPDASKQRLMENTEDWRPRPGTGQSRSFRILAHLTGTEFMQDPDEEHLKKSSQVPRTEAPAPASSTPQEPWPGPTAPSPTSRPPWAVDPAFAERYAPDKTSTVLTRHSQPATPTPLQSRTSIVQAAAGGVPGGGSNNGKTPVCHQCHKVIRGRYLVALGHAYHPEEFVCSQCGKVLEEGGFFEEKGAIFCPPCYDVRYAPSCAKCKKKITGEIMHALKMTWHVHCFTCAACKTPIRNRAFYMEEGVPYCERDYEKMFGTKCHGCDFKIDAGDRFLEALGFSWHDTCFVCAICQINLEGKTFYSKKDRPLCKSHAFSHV
UniProt P09382: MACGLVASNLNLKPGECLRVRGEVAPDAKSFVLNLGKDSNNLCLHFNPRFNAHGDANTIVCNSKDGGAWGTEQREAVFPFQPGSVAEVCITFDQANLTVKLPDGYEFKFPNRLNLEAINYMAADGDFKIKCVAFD
UniProt P28867: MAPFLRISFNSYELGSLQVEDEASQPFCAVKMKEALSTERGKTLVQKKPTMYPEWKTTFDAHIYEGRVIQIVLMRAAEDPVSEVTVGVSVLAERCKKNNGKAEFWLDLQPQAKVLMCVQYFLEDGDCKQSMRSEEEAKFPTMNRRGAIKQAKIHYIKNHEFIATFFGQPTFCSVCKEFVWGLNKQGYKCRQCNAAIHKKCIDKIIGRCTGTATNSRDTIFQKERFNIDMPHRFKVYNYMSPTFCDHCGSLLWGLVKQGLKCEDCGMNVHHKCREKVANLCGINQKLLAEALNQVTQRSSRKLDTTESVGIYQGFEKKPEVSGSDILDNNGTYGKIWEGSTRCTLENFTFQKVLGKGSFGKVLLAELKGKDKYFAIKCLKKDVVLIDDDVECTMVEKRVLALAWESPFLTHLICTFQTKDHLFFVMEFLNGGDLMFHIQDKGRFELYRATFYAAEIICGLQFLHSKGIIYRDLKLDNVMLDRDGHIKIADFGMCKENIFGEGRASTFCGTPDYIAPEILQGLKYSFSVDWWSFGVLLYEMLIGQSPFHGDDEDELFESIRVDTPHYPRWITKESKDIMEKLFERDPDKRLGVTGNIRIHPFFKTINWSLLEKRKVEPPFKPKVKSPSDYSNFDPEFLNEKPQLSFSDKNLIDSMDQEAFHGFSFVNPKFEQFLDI
UniProt Q05655: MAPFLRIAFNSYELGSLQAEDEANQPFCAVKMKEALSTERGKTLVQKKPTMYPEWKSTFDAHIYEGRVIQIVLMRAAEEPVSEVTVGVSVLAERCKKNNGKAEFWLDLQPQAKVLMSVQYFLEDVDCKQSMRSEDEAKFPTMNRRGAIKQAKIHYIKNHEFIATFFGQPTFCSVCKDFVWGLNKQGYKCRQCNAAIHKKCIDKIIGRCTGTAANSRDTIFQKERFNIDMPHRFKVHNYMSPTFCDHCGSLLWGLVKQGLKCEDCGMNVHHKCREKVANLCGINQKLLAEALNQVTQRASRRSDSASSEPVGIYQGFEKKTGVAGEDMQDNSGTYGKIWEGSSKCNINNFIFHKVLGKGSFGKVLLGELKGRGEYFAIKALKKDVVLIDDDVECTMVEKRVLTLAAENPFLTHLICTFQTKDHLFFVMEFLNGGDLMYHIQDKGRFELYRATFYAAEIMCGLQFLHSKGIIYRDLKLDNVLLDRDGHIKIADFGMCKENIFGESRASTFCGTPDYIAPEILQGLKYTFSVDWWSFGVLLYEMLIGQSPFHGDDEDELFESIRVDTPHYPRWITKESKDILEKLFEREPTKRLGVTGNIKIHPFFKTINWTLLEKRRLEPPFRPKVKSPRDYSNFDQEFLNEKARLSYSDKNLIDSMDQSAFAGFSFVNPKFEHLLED
UniProt P35222: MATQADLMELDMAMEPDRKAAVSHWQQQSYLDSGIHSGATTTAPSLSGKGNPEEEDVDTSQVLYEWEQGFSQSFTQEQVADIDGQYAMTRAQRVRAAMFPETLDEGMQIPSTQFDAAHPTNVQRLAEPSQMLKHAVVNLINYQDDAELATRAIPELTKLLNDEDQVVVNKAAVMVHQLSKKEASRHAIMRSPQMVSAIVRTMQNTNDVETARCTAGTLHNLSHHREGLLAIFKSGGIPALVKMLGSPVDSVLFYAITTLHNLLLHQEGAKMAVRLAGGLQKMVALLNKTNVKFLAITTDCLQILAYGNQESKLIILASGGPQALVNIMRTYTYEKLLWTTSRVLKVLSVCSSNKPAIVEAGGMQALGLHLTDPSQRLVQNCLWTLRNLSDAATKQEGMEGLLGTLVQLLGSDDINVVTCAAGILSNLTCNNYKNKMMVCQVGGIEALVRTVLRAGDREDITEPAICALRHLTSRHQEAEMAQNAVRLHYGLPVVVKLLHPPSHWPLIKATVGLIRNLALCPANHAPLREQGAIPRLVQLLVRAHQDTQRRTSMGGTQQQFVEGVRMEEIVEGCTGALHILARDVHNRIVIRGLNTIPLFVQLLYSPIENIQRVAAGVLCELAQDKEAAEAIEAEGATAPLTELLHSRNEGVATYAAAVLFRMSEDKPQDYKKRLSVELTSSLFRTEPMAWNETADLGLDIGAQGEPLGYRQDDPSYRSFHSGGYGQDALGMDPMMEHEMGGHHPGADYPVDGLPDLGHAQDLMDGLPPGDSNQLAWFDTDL

The target of experiment [1] is FLAG-epitope-tagged full-length CUB domain-containing protein 1 (CDCP1) (UniProt Q9H5V8). Description: co-IP; anti-FLAG agarose from MDA-MB-231 cells transduced with adenoviral CDCP1 forms, immunoblot; also with PAI-1 coexpression, 20 μM GM6001, 100 nM dasatinib or 100 μM sodium pervanadate. In general terms: A western blot detects proteins with antibodies after separation by electrophoresis.

Experiment [2] deals with CDCP1 (full length), transiently expressed in HEK 293 cells (UniProt Q9H5V8). Description: co-IP; HEK 293 cells transiently transfected; CDCP1 or ΔCDCP1-containing complexes isolated with anti-FLAG agarose, immunoblot.
The target of experiment [3] is FLAG-epitope-tagged full-length CUB domain-containing protein 1 (CDCP1) (UniProt Q9H5V8). Description: co-IP; sequential anti-FLAG (CDCP1), anti-Src immunoprecipitation from MDA-MB-468 cells transduced with adenoviruses encoding GFP, CDCP1 or PKCδ; unstimulated or stimulated with EGF or 100 μM sodium pervanadate for 20 minutes, with or without DDA RBF3; immunoblot.
Experiment [4] has the same target. Description: co-IP; immunoprecipitation of FLAG-tagged CDCP1 forms from MDA-MB-468 cell extracts, immunoblot; cells also pretreated with DDA NSC624203 (20 μM, 24 h, and a range of concentrations), lapatinib (20 μM, 24 h), dasatinib (100 nM, 24 h) or EGF (10 ng/ml, 20 min).
Experiment [5] shares this target. Description: co-IP; sequential immunoprecipitation of CDCP1, then Src, from MDA-MB-468 cells, immunoblot; with or without 20 μM DDA NSC624203 for 24 hours.
Experiment [6] has the same target. Description: co-IP; immunoprecipitation of FLAG-tagged CDCP1 forms from BT474 cell extracts, immunoblot.
Experiment [7] deals with endogenous CDCP1 (human (endogenous in T47D)) (UniProt Q9H5V8). Description: co-IP; T47D cell extracts immunoprecipitated with a CDCP1 antibody, immunoblot.

These are yes or no findings as the source states them, for the method shown. Binding seen in cells or lysates may run through a third protein. Some entries that bind do so weakly or less than the wild type.

For the substance “Enigma/PDLIM7 in MDA-MB-231 cells (from UniProt Q9NR12 1-457)”, the binding entry in experiment [1] was “binds”.
Regarding “Galectin 1, endogenous (from UniProt P09382 1-135)”, the binding entry in experiment [2] is given as “binds”.
On to “Myc-tagged mouse PKCδ (printed as PKC™), adenovirally expressed (from UniProt P28867 1-674) (enzyme)”, for which the binding entry in experiment [3] is “binds”.
For “PKCδ (from UniProt Q05655 1-676) (enzyme)”, the binding result in experiment [4] is “binds”.
Regarding “epidermal growth factor receptor (EGFR), endogenous (from UniProt P00533 25-1210)”, the binding entry is “binds” in experiment [5], “binds weakly” in experiment [6] and “binds” in experiment [4].
Take “β-catenin, endogenous (from UniProt P35222 1-781)”: the binding result in experiment [7] is recorded as “binds”.
